# Measured values published in PMC7819943, “Rice protein-binding microarrays: a tool to detect cis-acting elements near promoter regions in rice”.
# The list shows a part of the results.
# Target: T1, OsSMF1 (Oryza sativa, UniProt Q6ZLB0 1-436)
# T1 sequence: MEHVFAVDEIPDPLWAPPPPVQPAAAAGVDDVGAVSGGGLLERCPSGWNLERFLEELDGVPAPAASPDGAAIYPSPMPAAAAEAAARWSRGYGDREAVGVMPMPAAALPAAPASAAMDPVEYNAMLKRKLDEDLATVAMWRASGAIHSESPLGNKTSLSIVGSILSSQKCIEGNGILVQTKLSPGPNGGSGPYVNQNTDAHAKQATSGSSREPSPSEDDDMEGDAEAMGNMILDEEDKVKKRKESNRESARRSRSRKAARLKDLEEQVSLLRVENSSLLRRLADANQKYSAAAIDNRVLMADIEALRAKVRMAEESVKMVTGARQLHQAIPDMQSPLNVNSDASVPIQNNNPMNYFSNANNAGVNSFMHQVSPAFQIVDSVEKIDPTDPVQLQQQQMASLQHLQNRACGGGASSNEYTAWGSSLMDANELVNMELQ
# Assay: protein-binding microarray (RPBM); PBS, 2% BSA, 51.3 ng/ul salmon testes DNA, 50 uM zinc acetate, 200 nM TF, 25 C, 1 h; high values mean tight binding
# Details: protein: recombinant; tags: N-terminal polyhistidine and DsRed monomer fusion (pET32a); chain copies: 2; label: CyDye5-dUTP incorporated in the synthesized complementary strand; 3' TTTTT single-stranded linker to array surface; dsDNA, one strand shown
# Summary of the method: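 An Axon 4000B scanner gave the binding signal as per-feature fluorescence intensity in arbitrary units. This followed washing of a custom Agilent array that had been incubated for 1 h at 25 °C with 200 nM protein in PBS, 2% BSA, salmon testes DNA and 50 µM zinc acetate. The proteins were transcription factors fused at the N-terminus to polyhistidine and DsRed, expressed in E. coli BL21-CodonPlus and purified on Ni–NTA.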
row,Sequence,binding signal
1,CACCACACCAGCTCACACACGCTGTGCTGCTGCTGCTGCCCGGAGTCACCTAGTGCAG,3620 fluorescence intensity (a.u.)
2,CTCTCCTCTCCTCCTCCTGCTGCCGTCCACGCGACACCACCGGAGTCACCTAGTGCAG,3320 fluorescence intensity (a.u.)
3,GTATCAGTGACTAGACCATAAACTTGCTCTTACCAAGGTGCGGAGTCACCTAGTGCAG,3600 fluorescence intensity (a.u.)
4,ACCCGAGAGATGAACTTCGATGACCTGTGGTATGTGGACCCGGAGTCACCTAGTGCAG,4770 fluorescence intensity (a.u.)
5,CCGCTCCCACACCGGCGCCACCGCCGCCGGCTCCTGCGCCCGGAGTCACCTAGTGCAG,24500 fluorescence intensity (a.u.)
6,TGGCCGGAATCACACGCACAAGGTGCTGCGTCACCTATAACGGAGTCACCTAGTGCAG,9040 fluorescence intensity (a.u.)
7,ATTGAGGACGATGTGACCGCAACGTGGAGTAGATAGAGTTCGGAGTCACCTAGTGCAG,3740 fluorescence intensity (a.u.)
8,CTCGAGAGTTATTTATTATTTATATTTCCAAAGGTTTGACCGGAGTCACCTAGTGCAG,25900 fluorescence intensity (a.u.)
9,GAGGAATTGAAGGCATCATCACAGCTGACACAGCCATTTGCGGAGTCACCTAGTGCAG,5170 fluorescence intensity (a.u.)
10,ATCCGGATGCTGCGGAGTAATCACCTACTTAGAGCAGTACCGGAGTCACCTAGTGCAG,4580 fluorescence intensity (a.u.)
11,TGACTAATTCATCACTCACCATCATCATTATCCCTTTAATCGGAGTCACCTAGTGCAG,21800 fluorescence intensity (a.u.)
12,TATACTATTTCTTTCTTTTCCACCGTTGACGTTTTAGAACCGGAGTCACCTAGTGCAG,16200 fluorescence intensity (a.u.)
13,ACACCTCGCGACGACGACACACATGACACATATCCGTCCACGGAGTCACCTAGTGCAG,4330 fluorescence intensity (a.u.)
14,ACAAACCATCGTATACACGACGACTCCACCTATCTCGGCACGGAGTCACCTAGTGCAG,3200 fluorescence intensity (a.u.)
15,ATGAAAATACTTTAAAAGTTAAGTCACACATAAAGTACTGCGGAGTCACCTAGTGCAG,3930 fluorescence intensity (a.u.)
16,ACGTGCTCAGTCATCATCCTCATGGCCGTTCCTTGCCGAACGGAGTCACCTAGTGCAG,6930 fluorescence intensity (a.u.)
17,GGCCCACGCCGGCAGATCAGGTGGGGAGAGAAGCTCCGCCCGGAGTCACCTAGTGCAG,14700 fluorescence intensity (a.u.)
18,TATCCCTAGATCGACGCTTCCAACTGTGACCAAGCAGATGCGGAGTCACCTAGTGCAG,3360 fluorescence intensity (a.u.)
19,TGAGAATGCATTTCATATCTAACACATATCTTTATAGTAACGGAGTCACCTAGTGCAG,7310 fluorescence intensity (a.u.)
20,CTCGACCGGTGGGGCGTCTCCGAAACCCTCCATCTCGACACGGAGTCACCTAGTGCAG,36200 fluorescence intensity (a.u.)
21,CTGAGCAGCAGCAGCTTCGCCAGCTCGCGATCCCCTGCAACGGAGTCACCTAGTGCAG,3560 fluorescence intensity (a.u.)
22,TCGCCGCCGGAGCCGTGCTCGCTCGGGTGGACCTTCGGCACGGAGTCACCTAGTGCAG,27400 fluorescence intensity (a.u.)
23,CATGAGATGATTGAACTGGGACATGTTAGTCAAGGTTTTCCGGAGTCACCTAGTGCAG,3340 fluorescence intensity (a.u.)
24,CAGAGTGTGAGAATCTACCCACAACAACATCTGGATCATCCGGAGTCACCTAGTGCAG,3140 fluorescence intensity (a.u.)
25,CATTGAGGCCATGTCATGGATGACGTGGATGCAAATCTTCCGGAGTCACCTAGTGCAG,30600 fluorescence intensity (a.u.)
26,CATCCGTACTCCTCCTTCGTGATGCTGACACCCACATCATCGGAGTCACCTAGTGCAG,6720 fluorescence intensity (a.u.)
27,GAGAGGAGGGGCGTTGCCAGGGAGAAGAGGGGTTGCGGGGCGGAGTCACCTAGTGCAG,3820 fluorescence intensity (a.u.)

row,Sequence,binding signal
1,ACTCGAAGTCAAAGTCAAACAGAACAGCCACGTCTGTCTCCGGAGTCACCTAGTGCAG,7390 fluorescence intensity (a.u.)
2,CGGTTGAGCACGTCGTCGTGGTGGTTCTCCTCGGCGGACCCGGAGTCACCTAGTGCAG,3250 fluorescence intensity (a.u.)
3,CTCATCCGACGTTCGTGTCACGATCAAGTTGACACTGACTCGGAGTCACCTAGTGCAG,5570 fluorescence intensity (a.u.)
4,CCGAGAGGACACGCACTAGGCGGAGATGCGTTGGCGGTCGCGGAGTCACCTAGTGCAG,3620 fluorescence intensity (a.u.)
5,ATAAAACGAAAACTGTTTGTTAAGACGTGGCGCATGCATACGGAGTCACCTAGTGCAG,5570 fluorescence intensity (a.u.)
6,TGCAACCACCACCACCACGTCCCAAACTCGCACGTTTCTCCGGAGTCACCTAGTGCAG,4090 fluorescence intensity (a.u.)
7,AATACTTCAAATGTGTTTCCGTATATCCAATGTTACACACCGGAGTCACCTAGTGCAG,36000 fluorescence intensity (a.u.)
8,CTACCGGTCCATCTTGGATAGTAAGCCACGGCAGTGTTCACGGAGTCACCTAGTGCAG,3380 fluorescence intensity (a.u.)
9,CCTTCACACTATGGCTTTACACAACTAGATAAACATCGTCCGGAGTCACCTAGTGCAG,3540 fluorescence intensity (a.u.)
10,GTGAGATTTATCTAACACGCCACACTGATTTGGTTCAATTCGGAGTCACCTAGTGCAG,3580 fluorescence intensity (a.u.)
11,CCGATGATGACGCCACCTACGCCGTCGTCTCCCGTGTGCTCGGAGTCACCTAGTGCAG,6180 fluorescence intensity (a.u.)
12,CTACGCTATCCCCGTATAAAATTTGCGTCACTCCACCATCCGGAGTCACCTAGTGCAG,5100 fluorescence intensity (a.u.)
13,CGCGGAGCTTAAGCTAACGCCCGCCGTTTCGTCGTCATCACGGAGTCACCTAGTGCAG,4520 fluorescence intensity (a.u.)
14,CACGGTGCGGGGCGGTGCGGTGTGGCATCACACGTGTCGCCGGAGTCACCTAGTGCAG,7980 fluorescence intensity (a.u.)
15,CGGGAGAGAAGCCCACGTCACTCCCATAAATGGATGTGGACGGAGTCACCTAGTGCAG,9320 fluorescence intensity (a.u.)
16,AAGTATGACTTGTATCTTAGCATGTTTATACTGATTCGCACGGAGTCACCTAGTGCAG,3800 fluorescence intensity (a.u.)
17,GATAACTCCAGGAGAATTTACTGAGATGGCCTGGGAGGGGCGGAGTCACCTAGTGCAG,4310 fluorescence intensity (a.u.)
18,TAAACCCTAAGTTTCTGTGTCCAACGTTTGACTGTCTGTCCGGAGTCACCTAGTGCAG,3170 fluorescence intensity (a.u.)
19,TTCCCATAATTCTTTCAAATAGATTTGCATGCGTATTCTTCGGAGTCACCTAGTGCAG,3360 fluorescence intensity (a.u.)
20,TATCCATCCTAGTTGGCGTGCACACGATGATGGTTGACTGCGGAGTCACCTAGTGCAG,4620 fluorescence intensity (a.u.)
21,GTGACCGCCAATCATGAGCTCAACACTCTCTATTCCCTTCCGGAGTCACCTAGTGCAG,8510 fluorescence intensity (a.u.)
22,GGCAAATCTCATGTGCACGGTGCACGGCATGACGTGGCAGCGGAGTCACCTAGTGCAG,33200 fluorescence intensity (a.u.)
23,AACGCGCAGGATCTCCCCACGTGGCGCGGCCCACGTGCGCCGGAGTCACCTAGTGCAG,9720 fluorescence intensity (a.u.)
24,CGGTTAAAATCACCTAAGGATGCAGAGTGATCTGGTTTTGCGGAGTCACCTAGTGCAG,3770 fluorescence intensity (a.u.)
25,TGCGATTTTAGACGATTATCGTGCGATTATCACGGTTATCCGGAGTCACCTAGTGCAG,3360 fluorescence intensity (a.u.)
26,GCTTCATCCATCCATCAGCTGGGCCTGGGCTGGCTTAACTCGGAGTCACCTAGTGCAG,27000 fluorescence intensity (a.u.)
27,TTTAGCTGACGCTGTGACGCATGTTGCTTTCGTTGACAAACGGAGTCACCTAGTGCAG,5600 fluorescence intensity (a.u.)

# Four neighbouring records out of the list so far, for reference:
row,Sequence,binding signal
20,TATCCATCCTAGTTGGCGTGCACACGATGATGGTTGACTGCGGAGTCACCTAGTGCAG,4620 fluorescence intensity (a.u.)
21,GTGACCGCCAATCATGAGCTCAACACTCTCTATTCCCTTCCGGAGTCACCTAGTGCAG,8510 fluorescence intensity (a.u.)
22,GGCAAATCTCATGTGCACGGTGCACGGCATGACGTGGCAGCGGAGTCACCTAGTGCAG,33200 fluorescence intensity (a.u.)
23,AACGCGCAGGATCTCCCCACGTGGCGCGGCCCACGTGCGCCGGAGTCACCTAGTGCAG,9720 fluorescence intensity (a.u.)
